The list shows only some results of the screen, not a fair sample: it is rich in T/C values a quarter to a half above the control, in often repeated tests (any T/C) and in doses without a T/C. Other doses and runs of a compound stand elsewhere. T/C is the treated group as % of the vehicle group. Schedules are NCI's codes, read here as Q, the interval in days (D) or hours (H), X, the number of doses. Some T/C values are negative: the treated tumours shrank. Some entries were tested several times; the results are listed from low to high. Some T/C values are followed by the survivors on the day toxicity was checked, most often the fifth; where none is given, no animal had died by that day. Marks such as (2×) count equal records among those shown. Some doses have a count of surviving animals in place of a T/C: the source holds a T/C of zero for them, seemingly a mark for toxic or unscored doses. Counts of survivors are from the toxicity check (mostly the fifth day) where no day follows; animals may have died later.
Tested on: MX-1 breast xenograft, nude mice, tumor weight T/C
Assay: NCI In Vivo Anticancer Drug Screen. Data for tumor model Human Mammary Carcinoma MX-1 Xenograft (intrarenal inoculation) in NU/NU Swiss (nude) mice
Conditions: T/C endpoint: mean tumor weight change, higher T/C = larger tumour; for T/C: evaluated on day 11
Protocol: The antitumor activity of compounds was measured in mice bearing transplantable tumors. Survival or tumor size were measured and the results are expressed as the measurement made in the treated group (T) divided by the measurement made in the vehicle treated control group (C). The tumor model used in this assay is Human Mammary Carcinoma MX-1 Xenograft (intrarenal inoculation) in NU/NU Swiss (nude) mice

[1] = dose: 50.0 mg/kg/injection, schedule: Q04DX003 (sc), vehicle: saline with Tween-80
[2] = dose: 2400.0 mg/kg/injection, schedule: Q04DX003 (sc), vehicle: saline
[3] = dose: 50.0 mg/kg/injection, schedule: Q04DX003 (sc), vehicle: saline
[4] = dose: 600.0 mg/kg/injection, schedule: Q04DX003 (sc), vehicle: saline
[5] = dose: 1200.0 mg/kg/injection, schedule: Q04DX003 (sc), vehicle: saline
[6] = dose: 50.0 mg/kg/injection, schedule: Q01DX010 (sc), vehicle: Klucel (hydroxypropylcellulose) (HPC)
[7] = dose: 300.0 mg/kg/injection, schedule: Q04DX003 (sc), vehicle: saline with Tween-80
[8] = dose: 6.0 mg/kg/injection, schedule: Q04DX003 (sc), vehicle: saline with Tween-80

C[CH2][Sn]([CH2]C)([O]S(C)(=O)=O)[O]S(C)(=O)=O
survivor count [1]: 3 of 6 on day 11

CC(=O)OCC1OC(n2ccc(N)nc2=O)C(OC(C)=O)C1OC(C)=O (stereo unspecified)
survivor count [2]: 3 of 6 on day 11

C1OC1C1CO1 (stereo unspecified)
T/C (dose: 12.5 mg/kg/injection, schedule: Q04DX003 (sc), vehicle: saline): -81, 43, 55, 65, 92 % of control | T/C (dose: 25.0 mg/kg/injection, schedule: Q04DX003 (sc), vehicle: saline): -100, 3, 19, 27, 86 % of control | T/C [3]: -87 [4 of 6 alive on day 11], -43, 45 % of control [5 of 6 alive on day 11] | survivor count [3]: 1 of 6 on day 11 and 2 of 6 on day 11 | survivor count (dose: 100.0 mg/kg/injection, schedule: Q01DX010 (sc), vehicle: saline): 0 of 3 on day 11 and 0 of 6 on day 11 | survivor count (dose: 100.0 mg/kg/injection, schedule: Q04DX003 (sc), vehicle: saline): 0 of 6 on day 11 | survivor count (dose: 100.0 mg/kg/injection, schedule: Q04DX003 (sc), vehicle: suspension in saline): 0 of 6 on day 11

Cc1ncc(CNC(=O)N(CCCl)N=O)c(N)n1
survivor count (dose: 37.5 mg/kg/injection, schedule: Q04DX003 (sc), vehicle: saline): 3 of 6 on day 11 | survivor count (dose: 75.0 mg/kg/injection, schedule: Q04DX003 (sc), vehicle: saline): 0 of 6 on day 11

C1CNCOC1
survivor count [4]: 0 of 6 on day 11 | survivor count [5]: 0 of 6 on day 11

CCCCCCCCCCCCCCCCCC(=O)OCC(=O)OCC(=O)[C@]1(O)Cc2c(O)c3c(c(O)c2[C@@H](OC2CC(N)C(O)C(C)O2)C1)C(=O)c1c(OC)cccc1C3=O (stereo partly specified)
T/C (dose: 3.0 mg/kg/injection, schedule: Q01DX010 (sc), vehicle: water): 143 % of control | survivor count (dose: 24.0 mg/kg/injection, schedule: Q01DX010 (sc), vehicle: water): 1 of 3 on day 11

O=C1C(NCCO)=C(N2CC2)C(=O)C(NCCO)=C1N1CC1
survivor count (dose: 6.0 mg/kg/injection, schedule: Q04DX003 (sc), vehicle: saline): 1 of 6 on day 11 | survivor count (dose: 8.0 mg/kg/injection, schedule: Q04DX003 (sc), vehicle: saline): 0 of 6 on day 11

C[N+](C)(C)c1cc2c(nn1)Nc1ccccc1S2
T/C [6]: 144 % of control | survivor count (dose: 200.0 mg/kg/injection, schedule: Q01DX010 (sc), vehicle: Klucel (hydroxypropylcellulose) (HPC)): 0 of 3 on day 11 and 0 of 6 on day 11

N=c1nc2n(cc1F)[C@@H]1O[C@H](CO)[C@@H](O)[C@@H]1O2
survivor count (dose: 2400.0 mg/kg/injection, schedule: Q04DX003 (sc), vehicle: suspension in saline): 3 of 6 on day 11

CCCCCCCCCCCCCCCC(=O)OCC1OC(n2ccc(N)nc2=O)C(O)C1O (stereo unspecified)
T/C (dose: 75.0 mg/kg/injection, schedule: Q04DX003 (sc), vehicle: saline with Tween-80): 8 (2×), 70, 149 % of control | T/C (dose: 150.0 mg/kg/injection, schedule: Q04DX003 (sc), vehicle: saline with Tween-80): 2, 6, 16 [4 of 6 alive on day 11], 55 % of control | T/C [7]: 3 and 7 % of control [4 of 5 alive on day 11] | survivor count [7]: 0 of 6 on day 11 | survivor count (dose: 600.0 mg/kg/injection, schedule: Q04DX003 (sc), vehicle: saline with Tween-80): 0 of 6 on day 11 and 1 of 6 on day 11

CCOC(=O)Nc1cc2c(c(N)n1)N=C(c1ccccc1)CN2
survivor count [1]: 1 of 6 on day 11

CNC(=O)OCc1nc(SC)n(C)c1COC(=O)NC
survivor count (dose: 400.0 mg/kg/injection, schedule: Q04DX003 (ip), vehicle: saline): 1 of 6 on day 11

COC(C(=O)C(O)C(C)O)C1Cc2cc3cc(OC4CC(OC(C)=O)C(OC5CC(O)C(OC)C(C)O5)C(C)O4)cc(O)c3c(O)c2C(=O)C1OC1CC(OC2CC(OC3CC(C)(O)C(OC(=O)C(C)C)C(C)O3)C(O)C(C)O2)C(O)C(C)O1 (stereo unspecified)
T/C (dose: 3.0 mg/kg/injection, schedule: Q04DX003 (sc), vehicle: saline with Tween-80): -91, -71, -54, 12 % of control | T/C [8]: -93 [4 of 6 alive on day 11] and -90 % of control [4 of 6 alive on day 11] | survivor count [8]: 0 of 6 on day 11 and 2 of 6 on day 11 | survivor count (dose: 12.0 mg/kg/injection, schedule: Q04DX003 (sc), vehicle: saline with Tween-80): 0 of 6 on day 11 | survivor count (dose: 24.0 mg/kg/injection, schedule: Q04DX003 (sc), vehicle: saline with Tween-80): 0 of 6 on day 11

OC(CCl)CN1CC[N+]2(CC1)CC[N+]1(CCN(CC(O)CCl)CC1)CC2 (stereo unspecified)
T/C (dose: 16.0 mg/kg/injection, schedule: Q01DX010 (sc), vehicle: water): 129 % of control | survivor count (dose: 853.3 mg/kg/injection, schedule: Q04DX003 (ip), vehicle: water): 0 of 3 on day 11 | survivor count (dose: 853.3 mg/kg/injection, schedule: Q04DX003 (sc), vehicle: water): 1 of 3 on day 11 | survivor count (dose: 1024.0 mg/kg/injection, schedule: Q01DX010 (sc), vehicle: water): 0 of 3 on day 11

C[CH2][Ge]1([CH2]C)[CH2]CC2(CCN(CCCN(C)C)C2)C[CH2]1
survivor count (dose: 150.0 mg/kg/injection, schedule: Q04DX003 (sc), vehicle: saline): 3 of 6 on day 11 | survivor count (dose: 300.0 mg/kg/injection, schedule: Q04DX003 (sc), vehicle: saline): 0 of 6 on day 11 | survivor count [4]: 0 of 6 on day 11 | survivor count [5]: 0 of 6 on day 11

COC(=O)C(N)Cc1ccc(O)c(O)c1 (stereo unspecified)
survivor count [2]: 2 of 5 on day 11

CCCCCC(O)C1C(=O)OC(C)C(O)/C=C/C=C/C=C/C=C\C=C(\C)C(O)CC(O)CC(O)CC(O)CC(O)CC(O)CC1O (stereo unspecified)
T/C (dose: 150.0 mg/kg/injection, schedule: Q04DX003 (sc), vehicle: distilled water + alcohol): 131 % of control

[N-]=[N+]=C1N=CN=C1c1ncn[nH]1
survivor count [6]: 1 of 2 on day 11 | survivor count (dose: 100.0 mg/kg/injection, schedule: Q01DX010 (sc), vehicle: Klucel (hydroxypropylcellulose) (HPC)): 0 of 3 on day 11

C[C@]12CCC(=O)C=C1CC[C@@H]1[C@@H]2C(=O)C[C@@]2(C)[C@H]1CC[C@]2(O)C(=O)CO
survivor count (dose: 1200.0 mg/kg/injection, schedule: Q04DX003 (sc), vehicle: Klucel (hydroxypropylcellulose) (HPC)): 3 of 6 on day 11 | survivor count (dose: 2400.0 mg/kg/injection, schedule: Q04DX003 (sc), vehicle: Klucel (hydroxypropylcellulose) (HPC)): 3 of 6 on day 11

Source: PubChem BioAssay AID296 (DTP/NCI, 2004)
